These results are taken from PMC6193743, “Phosphoglucomutase 1 inhibits hepatocellular carcinoma progression by regulating glucose trafficking”.

Chains of the proteins cited; added tags and fusions are not shown.
UniProt Q9P0K8: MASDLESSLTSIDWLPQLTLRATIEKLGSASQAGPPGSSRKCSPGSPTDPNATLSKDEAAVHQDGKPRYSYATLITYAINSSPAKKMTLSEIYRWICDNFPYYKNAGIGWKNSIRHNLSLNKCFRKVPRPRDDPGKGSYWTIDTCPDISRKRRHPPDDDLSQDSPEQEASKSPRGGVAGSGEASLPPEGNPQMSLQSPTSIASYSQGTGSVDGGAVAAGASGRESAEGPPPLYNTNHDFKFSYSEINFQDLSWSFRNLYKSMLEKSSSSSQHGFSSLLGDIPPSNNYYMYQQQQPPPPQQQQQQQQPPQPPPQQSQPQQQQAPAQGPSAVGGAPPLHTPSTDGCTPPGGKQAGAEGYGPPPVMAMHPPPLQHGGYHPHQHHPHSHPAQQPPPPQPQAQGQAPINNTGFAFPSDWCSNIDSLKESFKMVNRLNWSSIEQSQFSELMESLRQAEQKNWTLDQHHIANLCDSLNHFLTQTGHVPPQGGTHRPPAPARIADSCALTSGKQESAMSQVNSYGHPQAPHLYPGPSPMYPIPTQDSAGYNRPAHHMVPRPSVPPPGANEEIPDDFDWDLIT
UniProt P62633: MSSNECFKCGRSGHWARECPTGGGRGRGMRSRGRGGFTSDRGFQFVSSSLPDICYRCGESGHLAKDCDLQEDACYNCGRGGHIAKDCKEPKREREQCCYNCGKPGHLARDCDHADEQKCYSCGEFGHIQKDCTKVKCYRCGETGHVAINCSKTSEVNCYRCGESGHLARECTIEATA

The target of the assay is Flag-FOXJ2 (forkhead box protein J2) (human) (UniProt Q9P0K8). Briefly: co-IP; anti-Flag immunoprecipitation from SK-Hep1 cells expressing EV or Flag-FOXJ2; immunoblotting with indicated antibodies. Background: In western blotting, separated proteins are transferred to a membrane and probed.

No constants are given. Whether binding was seen depends on the method and setting. Binding seen in cells or lysates may run through a third protein. Some entries that bind do so weakly or less than the wild type.

In the case of “cellular nucleic acid-binding protein (CNBP) (from UniProt P62633 1-177)”, the binding entry is on record as “binds”.
